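Methionyl-tRNA synthetase (putative), Leishmania donovani (UniProt E9BF75). Primary screen of methionyl-tRNA synthetase; the read-out is not stated. The test concentration is not given. The values are filed as inhibition. Size under these conditions: about 68,000 compounds, about 24 of them at 50% or above in at least one test.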

Sequences of proteins named here, by UniProt entry; tags and fusion partners are left off.
UniProt E9BF75, entry or part of it: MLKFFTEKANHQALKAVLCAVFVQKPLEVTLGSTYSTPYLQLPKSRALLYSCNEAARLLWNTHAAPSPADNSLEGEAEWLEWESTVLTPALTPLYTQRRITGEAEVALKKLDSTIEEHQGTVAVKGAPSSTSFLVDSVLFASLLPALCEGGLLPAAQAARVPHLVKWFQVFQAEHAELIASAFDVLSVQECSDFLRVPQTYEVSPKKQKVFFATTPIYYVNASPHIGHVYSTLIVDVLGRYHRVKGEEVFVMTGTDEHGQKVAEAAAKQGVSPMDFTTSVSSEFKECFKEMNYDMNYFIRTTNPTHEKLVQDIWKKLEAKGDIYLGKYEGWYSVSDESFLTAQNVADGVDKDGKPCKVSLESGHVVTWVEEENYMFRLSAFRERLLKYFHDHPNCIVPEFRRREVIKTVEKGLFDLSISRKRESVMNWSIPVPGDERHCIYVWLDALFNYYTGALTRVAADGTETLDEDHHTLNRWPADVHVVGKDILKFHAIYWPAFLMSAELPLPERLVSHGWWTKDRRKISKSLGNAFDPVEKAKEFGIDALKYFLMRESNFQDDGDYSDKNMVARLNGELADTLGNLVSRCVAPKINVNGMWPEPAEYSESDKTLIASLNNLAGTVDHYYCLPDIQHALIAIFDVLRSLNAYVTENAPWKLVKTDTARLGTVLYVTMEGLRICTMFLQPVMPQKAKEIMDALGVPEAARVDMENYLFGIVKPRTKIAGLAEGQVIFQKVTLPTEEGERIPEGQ

All values are in %.
The controls that fix the scale are not given in the record; negative values are as filed.
Compounds were drawn at random from those tested, without regard to their results.

O=c1[nH]nc2c(S(=O)(=O)N3CCCC3)cccn12 read 17.62%.
CC(C)c1cc(C(=O)N2C[C@H]3CC[C@@H]2CN(Cc2cccnc2)C3)no1 read 16.32%.
Cc1c(CCC(=O)N2CCCC2c2ccnc(N(C)C)c2)cnn1C (configuration not stated) read 14.17%.
CC(C1CCN(Cc2ccccc2OC(F)F)CC1)N1CCOCC1 (configuration not stated) read 8.193%.
Cc1cnn(CCNC(C)C(=O)Nc2ccc(Cl)cn2)c1 (configuration not stated) read 16.84%.
Cc1noc(C)c1S(=O)(=O)N(C)Cc1nn(C)c(Cl)c1Cl read 6.015%.
CCN(Cc1cccc(-c2ccncc2)c1)S(N)(=O)=O read 15.86%.
Cc1nc(CC(=O)N2CCCC2c2nc(-c3ccccc3)no2)cs1 (configuration not stated) read 17.02%.
CN(C)C(C(=O)N1Cc2ccccc2C1)c1ccccc1F (configuration not stated) read 9.363%.
O=C(c1cc2c(s1)CCC2)N1CCN(c2cnccn2)CC1 read -1.433%.
Cn1c(CN2CCOCC2)nnc1C1CCN(C(=O)C2CCCC2)CC1 read 8.333%.
Cc1cc(NC(=O)CN2CCCC2c2noc(C3CC3)n2)no1 (configuration not stated) read 11.33%.
CCc1ccc(NC(=O)C2OC(c3cccs3)=NN2C(C)=O)cc1 (configuration not stated) read 0.3497%.
N#Cc1cc(F)ccc1CN1CCCCC1Cn1cccn1 (configuration not stated) read 26.26%.
Cn1ccc(C(=O)N2CCN(Cc3ccccc3F)CC2)cc1=O read 1.567%.
CC(=O)N1Cc2ccccc2C[C@H]1C(=O)Nc1ccccn1 read 14.63%.
Cc1ncc(S(C)(=O)=O)c(N2CCCCCC2)n1 read -2.439%.
CN1CCN(c2ncc3c(=O)n(-c4cccc(F)c4)c(=O)[nH]c3n2)CC1 read 10.56%.
CCN1CCCCC1C(=O)N1CCN(C(=O)OC)CC1 (configuration not stated) read 16.49%.
Cc1cc(C2CCCN(CCCS(=O)(=O)c3ccccc3)C2)n[nH]1 (configuration not stated) read 3.286%.
OC(CN1CCN(CC2CCCCC2)CC1)c1ccccc1 (configuration not stated) read 13.49%.
CN(C)C(=O)C1(c2cnccn2)CCCN1C(=O)Cc1ccccc1 (configuration not stated) read 15.22%.
CN(C)Cc1cc(CC2(NCc3ccc(C#N)cc3)COC2)no1 read 12.05%.
CC(=O)N1CC[C@@H](N2CCN(C)CC2)[C@@H]1Cc1ccccc1 read 12.89%.
CC[C@@H]1N(Cc2ccoc2)CCC[C@]12CCC(=O)N2CCOC read 11.68%.
CC(=O)N1CCN(Cc2ccccn2)CC2(CC(=O)N(C)C2)C1 (configuration not stated) read 9.764%.
CN(C)CC1CN(Cc2nc(-c3ccccn3)no2)CCO1 (configuration not stated) read 11.73%.
CCN(CC)C(=O)CSc1nnc(CCNC(=O)OC(C)(C)C)o1 read 11.21%.
COCC(=O)N(C)Cc1cccc(Cl)c1 read 9.859%.
CNc1ccc(CC2CCCN(C(=O)c3cnco3)C2)nn1 (configuration not stated) read 5.412%.
Cn1ncc(NC(=O)Cn2cc(-c3ccc(F)cn3)cn2)n1 read 10.31%.
CN1CCN(C(=O)c2cc(C#N)cs2)c2ccccc2C1 read 6.137%.
O=C(NCC1COCCO1)c1csc(Cc2ccccc2)n1 (configuration not stated) read 15.16%.
Cc1cc(C)nc(Nc2cncc(C3CCCN(S(C)(=O)=O)C3)n2)n1 (configuration not stated) read -1.042%.
CN1CCN(Cc2cccnc2)C2(CCN(Cc3ccccn3)C2)C1=O (configuration not stated) read 9.677%.
CCS(=O)(=O)NC[C@]12COC[C@H]1CN(Cc1ccncc1)C2 read 10.22%.
CCN(Cc1ccc2c(c1)OCO2)C(=O)NCc1nc(C)cs1 read 12.03%.
COc1cc2ncn(Cc3ncc[nH]3)c(=O)c2cc1OC read 13.62%.
O=C(NCC1CCC2(CC1)OCCO2)c1ccncc1F read 10.05%.
COCCCN(CCOC)Cc1nc2c(cnn2C)c(=O)[nH]1 read 18.23%.
CN1CCN(C(=O)NC2CCCC2)Cc2cccnc21 read 7.407%.
CCOC1CCN(C(=O)NCCc2ccn(-c3ccccc3)n2)CC1 read 19.34%.
CC(NC(=O)CN1C=Nc2ccccc2S1(=O)=O)c1ccccc1 (configuration not stated) read 17.6%.
Cc1cnc(-c2cccc(-c3ccn(CCCO)n3)c2)nc1N(C)C read 19.52%.
CN(C)CC(=O)N1CCO[C@@H]2CC(COCc3ccncc3)C[C@H]21 (some centres not stated) read 9.971%.
CO[C@H]1CN(C(=O)c2ccc3c(c2)OCO3)[C@@H]2COC[C@H]12 read 8.696%.
COc1ccc(-c2nccc(C3CCCN3C)n2)cc1 (configuration not stated) read 18.9%.
CCc1nc2c(NCC3COc4c(cccc4OC)C3)ncnc2o1 (configuration not stated) read 3.2%.
CN1CC(C(=O)NC2(c3ccc(Cl)cc3)CCOCC2)CC1=O (configuration not stated) read 17%.
Cc1nc(C)n(CC2CCCN(CCCOc3ccccc3)C2)n1 (configuration not stated) read 13.19%.
CC(Cn1cccn1)NC(=O)CCC(=O)c1cccs1 (configuration not stated) read 9.538%.
CCc1nc(CN2CCN(C(=O)C3(C#N)CCCC3)CC2)cs1 read 10.06%.

The first 5 entries again:

Compound,inhibition
O=c1[nH]nc2c(S(=O)(=O)N3CCCC3)cccn12,17.62%
CC(C)c1cc(C(=O)N2C[C@H]3CC[C@@H]2CN(Cc2cccnc2)C3)no1,16.32%
Cc1c(CCC(=O)N2CCCC2c2ccnc(N(C)C)c2)cnn1C (configuration not stated),14.17%
CC(C1CCN(Cc2ccccc2OC(F)F)CC1)N1CCOCC1 (configuration not stated),8.193%
Cc1cnn(CCNC(C)C(=O)Nc2ccc(Cl)cn2)c1 (configuration not stated),16.84%

Data taken from ChEMBL document CHEMBL3988442, “University of Dundee, Small-Polar-MMV Screening Library” (2021).